Assay results as given in patent US8216786B2, “Genetic polymorphisms associated with cardiovascular diseases, methods of detection and uses thereof” (Celera Corporation, priority 2008, dated 2012).
The source gives many values for each of these; only a part stands here.

Test system: individuals who have previously had an MI
Experiment: CARE trial: effect of pravastatin vs placebo on coronary events (endpt1, rmi) by SNP genotype subgroup
Format: in vivo, human
Conditions: endpt1
Procedure: In Tables 21-22, the column labeled “Endpoint” indicates whether the endpoint that was analyzed was the primary endpoint of the CARE study (a composite endpoint of fatal coronary event or nonfatal MI, and identified as “endpt1”) or a composite endpoint of confirmed fatal or nonfatal MI (identified as “rmi”). […] As used herein, the term “benefit” (with respect to a preventive or therapeutic drug treatment) is defined as achieving a reduced risk for a disease that the drug is intended to treat or prevent (e.g., CVD such as CHD, particularly MI, or hypertension) by administering the drug treatment, compared with the risk for the disease in the absence of receiving the drug treatment (or receiving a placebo in lieu of the drug treatment) for the same genotype. […] J. […] (1996) New England Journal of Medicine 335: 1001-1009. […] A well-documented MI was one of the enrollment criteria for entry into the CARE study. Patients were enrolled in the CARE trial from 80 participating study centers. […] For the study of CARE described in this Example and shown in Tables 21-22, two endpoints were investigated: the primary endpoint of CARE (a composite endpoint of fatal coronary event or nonfatal MI, and identified as “endpt1” in the Endpoint column of Tables 21-22) and a composite endpoint of confirmed fatal or nonfatal MI (identified as “rmi” in the Endpoint column of Tables 21-22). […] HR stands for Hazard Ratio, which is a concept similar to Odds Ratio (OR). The HR in event-free survival analysis is the effect of an explanatory variable on the hazard or risk of an event. […] In Table 21, p-interaction values were calculated. An interaction (or effect modification) is formed when a third variable modifies the relation between an exposure and outcome. […] Genotype and drug interaction is present when the effect of statins (incidence rate of disease in statin-treated group, as compared to placebo) differs in patients with different genotypes.

[1] = hCV1026586 rs673548 APOB, Strata AA
[2] = hCV1026586 rs673548 APOB, Strata GA + GG
[3] = hCV1239369 rs275982, strata CA + AA
[4] = hCV1243283 rs1716 ITGAE, Strata AA
[5] = hCV1243283 rs1716 ITGAE, Strata AG + GG
[6] = hCV1253630 rs2071307 ELN, Strata AG + AA
[7] = hCV1253630 rs2071307 ELN, Strata GG
[8] = hCV1323634 rs287475, Strata TC + TT
[9] = hCV1323669 rs287354, strata GA + GG
[10] = hCV1345898 rs2230804 CHUK, Strata CC
[11] = hCV1345898 rs2230804 CHUK, Strata CT + TT
[12] = hCV1361979 rs25683 ACAT2, Strata AG + AA
[13] = hCV1361979 rs25683 ACAT2, Strata GG
[14] = hCV1375141 rs1881420 ALK, Strata CC
[15] = hCV1375141 rs1881420 ALK, Strata CT
[16] = hCV1375141 rs1881420 ALK, Strata TT
[17] = hCV1488444 rs10164405, strata TG + GG
[18] = hCV1488444 rs10164405, strata TT
[19] = hCV1489995 rs4013819 LOC392281, strata GC + CC
[20] = hCV1489995 rs4013819 LOC392281, strata GG
[21] = hCV1552894 rs434473 ALOX12, Strata GA + AA
[22] = hCV1552894 rs434473 ALOX12, Strata GG
[23] = hCV1552900 rs1126667 ALOX12, Strata AA
[24] = hCV1552900 rs1126667 ALOX12, Strata AG + GG
[25] = hCV1600754 rs17288671 CXCL9, Strata CC
[26] = hCV1600754 rs17288671 CXCL9, Strata TC + TT
[27] = hCV1603697 rs2229475 HSPG2, Strata CC
[28] = hCV1603697 rs2229475 HSPG2, Strata TC + TT
[29] = hCV1647371 rs3025000 VEGFA, Strata CC
[30] = hCV1647371 rs3025000 VEGFA, Strata TC + TT
[31] = hCV1729928 rs10509384 KCNMA1, strata AG + AA
[32] = hCV1729928 rs10509384 KCNMA1, strata GG
[33] = hCV1741111 rs1764391 C1orf212, Strata TC + CC
[34] = hCV1741111 rs1764391 C1orf212, Strata TT
[35] = hCV1770462 rs12731981 MPL, Strata AG + AA
[36] = hCV1770462 rs12731981 MPL, Strata GG
[37] = hCV1802755 rs7764347 RFXDC1, strata CC
[38] = hCV1802755 rs7764347 RFXDC1, strata CT + TT
[39] = hCV1843175 rs3745535 KLK10, Strata AC + AA
[40] = hCV1843175 rs3745535 KLK10, Strata CC
[41] = hCV1948599 rs504527 CSMD2, strata AA
[42] = hCV1948599 rs504527 CSMD2, strata CA + CC
[43] = hCV2143205 rs9666607 CD44, Strata AA
[44] = hCV2143205 rs9666607 CD44, Strata AG + GG
[45] = hCV2230606 rs13268 FBLN1, Strata AA
[46] = hCV2230606 rs13268 FBLN1, Strata GA + GG

CC[C@H](C)C(=O)O[C@H]1C[C@H](O)C=C2C=C[C@H](C)[C@H](CC[C@@H](O)C[C@@H](O)CC(=O)O)[C@H]21 [pravastatin]
EVENTS (Pravastatin arm) [1]: 9
NONEVENT (Pravastatin arm) [1]: 59
EVENTS (Pravastatin arm) [2]: 127
NONEVENT (Pravastatin arm) [2]: 1203
EVENTS (Pravastatin arm) [3]: 88
NONEVENT (Pravastatin arm) [3]: 713
EVENTS (Pravastatin arm) (hCV1239369 rs275982, strata CC): 48
NONEVENT (Pravastatin arm) (hCV1239369 rs275982, strata CC): 552
EVENTS (Pravastatin arm) [4]: 10
NONEVENT (Pravastatin arm) [4]: 151
EVENTS (Pravastatin arm) [5]: 123
NONEVENT (Pravastatin arm) [5]: 1138
EVENTS (Pravastatin arm) [6]: 92
NONEVENT (Pravastatin arm) [6]: 839
EVENTS (Pravastatin arm) [7]: 40
NONEVENT (Pravastatin arm) [7]: 450
EVENTS (Pravastatin arm) (hCV1323634 rs287475, Strata CC): 30
NONEVENT (Pravastatin arm) (hCV1323634 rs287475, Strata CC): 229
EVENTS (Pravastatin arm) [8]: 106
NONEVENT (Pravastatin arm) [8]: 1034
EVENTS (Pravastatin arm) (hCV1323669 rs287354, strata AA): 32
NONEVENT (Pravastatin arm) (hCV1323669 rs287354, strata AA): 244
EVENTS (Pravastatin arm) [9]: 104
NONEVENT (Pravastatin arm) [9]: 1023
EVENTS (Pravastatin arm) [10]: 21
NONEVENT (Pravastatin arm) [10]: 322
EVENTS (Pravastatin arm) [11]: 111
NONEVENT (Pravastatin arm) [11]: 964
EVENTS (Pravastatin arm) [12]: 97
NONEVENT (Pravastatin arm) [12]: 851
EVENTS (Pravastatin arm) [13]: 36
NONEVENT (Pravastatin arm) [13]: 434
EVENTS (Pravastatin arm) [14]: 10
NONEVENT (Pravastatin arm) [14]: 69
EVENTS (Pravastatin arm) [15]: 33
NONEVENT (Pravastatin arm) [15]: 421
EVENTS (Pravastatin arm) [16]: 90
NONEVENT (Pravastatin arm) [16]: 799
EVENTS (Pravastatin arm) [17]: 129
NONEVENT (Pravastatin arm) [17]: 1159
EVENTS (Pravastatin arm) [18]: 7
NONEVENT (Pravastatin arm) [18]: 103
EVENTS (Pravastatin arm) [19]: 120
NONEVENT (Pravastatin arm) [19]: 1076
EVENTS (Pravastatin arm) [20]: 16
NONEVENT (Pravastatin arm) [20]: 185
EVENTS (Pravastatin arm) [21]: 116
NONEVENT (Pravastatin arm) [21]: 1073
EVENTS (Pravastatin arm) [22]: 16
NONEVENT (Pravastatin arm) [22]: 212
EVENTS (Pravastatin arm) [23]: 16
NONEVENT (Pravastatin arm) [23]: 212
EVENTS (Pravastatin arm) [24]: 117
NONEVENT (Pravastatin arm) [24]: 1076
EVENTS (Pravastatin arm) [25]: 34
NONEVENT (Pravastatin arm) [25]: 396
EVENTS (Pravastatin arm) [26]: 99
NONEVENT (Pravastatin arm) [26]: 892
EVENTS (Pravastatin arm) [27]: 122
NONEVENT (Pravastatin arm) [27]: 1141
EVENTS (Pravastatin arm) [28]: 11
NONEVENT (Pravastatin arm) [28]: 148
EVENTS (Pravastatin arm) [29]: 57
NONEVENT (Pravastatin arm) [29]: 600
EVENTS (Pravastatin arm) [30]: 75
NONEVENT (Pravastatin arm) [30]: 662
EVENTS (Pravastatin arm) [31]: 117
NONEVENT (Pravastatin arm) [31]: 1119
EVENTS (Pravastatin arm) [32]: 18
NONEVENT (Pravastatin arm) [32]: 142
EVENTS (Pravastatin arm) [33]: 121
NONEVENT (Pravastatin arm) [33]: 1174
EVENTS (Pravastatin arm) [34]: 12
NONEVENT (Pravastatin arm) [34]: 114
EVENTS (Pravastatin arm) [35]: 18
NONEVENT (Pravastatin arm) [35]: 82
EVENTS (Pravastatin arm) [36]: 114
NONEVENT (Pravastatin arm) [36]: 1204
EVENTS (Pravastatin arm) [37]: 2
NONEVENT (Pravastatin arm) [37]: 47
EVENTS (Pravastatin arm) [38]: 134
NONEVENT (Pravastatin arm) [38]: 1216
EVENTS (Pravastatin arm) [39]: 75
NONEVENT (Pravastatin arm) [39]: 754
EVENTS (Pravastatin arm) [40]: 57
NONEVENT (Pravastatin arm) [40]: 528
EVENTS (Pravastatin arm) [41]: 44
NONEVENT (Pravastatin arm) [41]: 275
EVENTS (Pravastatin arm) [42]: 92
NONEVENT (Pravastatin arm) [42]: 989
EVENTS (Pravastatin arm) [43]: 16
NONEVENT (Pravastatin arm) [43]: 125
EVENTS (Pravastatin arm) [44]: 117
NONEVENT (Pravastatin arm) [44]: 1167
EVENTS (Pravastatin arm) (hCV2221541 rs739161, strata CC): 7
NONEVENT (Pravastatin arm) (hCV2221541 rs739161, strata CC): 121
EVENTS (Pravastatin arm) (hCV2221541 rs739161, strata TC): 55
NONEVENT (Pravastatin arm) (hCV2221541 rs739161, strata TC): 492
EVENTS (Pravastatin arm) (hCV2221541 rs739161, strata TT): 74
NONEVENT (Pravastatin arm) (hCV2221541 rs739161, strata TT): 649
EVENTS (Pravastatin arm) [45]: 124
NONEVENT (Pravastatin arm) [45]: 1224
EVENTS (Pravastatin arm) [46]: 9
NONEVENT (Pravastatin arm) [46]: 62
EVENTS (Pravastatin arm) (hCV2276802 rs381418 GBA, Strata AA): 33
